Experimental data: PubChem BioAssay AID743121 (NCATS, 2013)

Test: 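Knock-downs that sensitise breast cancer cells to camptothecin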 (primary screen)
Cell system: MDA-MB-231 cells, a human breast cancer line
Knock-down reagent: single siRNA against human genes, 20 nM siRNA (0.8 pmol per well)
Timing: 120 h (drug added 48 h after transfection, read 72 h later)
Treatment: camptothecin 20 nM (about EC30) for 72 h; vehicle 0.1% DMSO in parallel plates
Measurement: 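Cell viability by ATP luminescence (CellTiter-Glo) as % of non-targeting siRNA wells, and the log2 ratio of viability without drug over viability with camptothecin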
Direction: log2 vehicle/camptothecin viability: higher = stronger sensitisation to camptothecin; viability with camptothecin: higher = more viable cells
Rule for the call: 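Each gene scored by redundant siRNA activity (RSA) over its individual siRNA ratios; a gene is called active at p < 0.001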
In all, the deposit lists about 26,000 reagents; this is a random part of them. In the full data, 167 (0.63%) got an active call. 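Calls are per gene from RSA p-values that are not deposited; an individual active-marked siRNA can sensitise only weakly.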 A number with no mark means an inactive call. The numbers tell different reagents against one gene apart. Not all columns of the deposit are shown.

Gene | reagent | log2 vehicle/camptothecin viability | viability with camptothecin (% of control)
SCGB1A1 (GeneID 7356) | 1 | 0.0773 | 37.5
SCGB1A1 (GeneID 7356) | 2 | 0.198 | 50.7
SCGB1A1 (GeneID 7356) | 3 | 0.43 | 51.9
SCGB1A1 (GeneID 7356) | 4 | -0.34 | 45.8
STK25 (GeneID 10494) | 1 | -0.0641 | 70.2
STK25 (GeneID 10494) | 2 | -0.39 | 37.6
STK25 (GeneID 10494) | 3 | -0.189 | 58.6
STK25 (GeneID 10494) | 4 | -0.494 | 80.2
DUSP22 (GeneID 56940) | 1 | 0.0122 | 73.5
DUSP22 (GeneID 56940) | 2 | -0.264 | 53.4
DUSP22 (GeneID 56940) | 3 | -0.024 | 99.3
DUSP22 (GeneID 56940) | 4 | 0.0626 | 50.2
TGM3 (GeneID 7053) | 1 | -0.384 | 96.4
TGM3 (GeneID 7053) | 2 | -0.574 | 42
TGM3 (GeneID 7053) | 3 | -0.588 | 93.4
TGM3 (GeneID 7053) | 4 | -0.0755 | 75.6
OR8G5 (GeneID 219865) | 1 | -0.143 | 74.5
OR8G5 (GeneID 219865) | 2 | -0.111 | 63.6
OR8G5 (GeneID 219865) | 3 | 0.828 | 39
OR8G5 (GeneID 219865) | 4 | 0.299 | 74.8
POC1A (GeneID 25886) | 1 | 0.102 | 84
POC1A (GeneID 25886) | 2 | 0.216 | 83.7
POC1A (GeneID 25886) | 3 | -0.207 | 115
POC1A (GeneID 25886) | 4 | 0.0919 | 30.1
B4GALNT1 (GeneID 2583) | 1 | -0.196 | 77.5
B4GALNT1 (GeneID 2583) | 2 | -0.713 | 97.9
B4GALNT1 (GeneID 2583) | 3 | 0.233 | 83.4
B4GALNT1 (GeneID 2583) | 4 | -0.42 | 48.6
ASB15 (GeneID 142685) | 1 | -0.22 | 58.9
ASB15 (GeneID 142685) | 2 | -0.0202 | 74.1
ASB15 (GeneID 142685) | 3 | 0.0717 | 108

Targets listed so far whose gene name begins with S or s (8):
Gene | reagent | log2 vehicle/camptothecin viability | viability with camptothecin (% of control)
SCGB1A1 (GeneID 7356) | 1 | 0.0773 | 37.5
SCGB1A1 (GeneID 7356) | 2 | 0.198 | 50.7
SCGB1A1 (GeneID 7356) | 3 | 0.43 | 51.9
SCGB1A1 (GeneID 7356) | 4 | -0.34 | 45.8
STK25 (GeneID 10494) | 1 | -0.0641 | 70.2
STK25 (GeneID 10494) | 2 | -0.39 | 37.6
STK25 (GeneID 10494) | 3 | -0.189 | 58.6
STK25 (GeneID 10494) | 4 | -0.494 | 80.2

Continued:
Gene | reagent | log2 vehicle/camptothecin viability | viability with camptothecin (% of control)
PDZRN3 (GeneID 23024) | 1 | 0.709 | 13.4
PDZRN3 (GeneID 23024) | 2 | -0.346 | 96.6
PDZRN3 (GeneID 23024) | 3 | 0.0353 | 99
PDZRN3 (GeneID 23024) | 4 | -0.199 | 109
RAB27A (GeneID 5873) | 1 | 0.207 | 86.3
RAB27A (GeneID 5873) | 2 | -0.164 | 90.3
RAB27A (GeneID 5873) | 3 | 0.103 | 85.5
RAB27A (GeneID 5873) | 4 | -0.376 | 126
NF1 (GeneID 4763) | 1 | -0.392 | 67.4
NF1 (GeneID 4763) | 2 | -0.495 | 116
NF1 (GeneID 4763) | 3 | 0.4 | 42
NF1 (GeneID 4763) | 4 | -0.0127 | 66.4
TF (GeneID 7018) | 1 | -0.49 | 62.6
TF (GeneID 7018) | 2 | -0.22 | 98.8
TF (GeneID 7018) | 3 | -0.0225 | 89.1
TF (GeneID 7018) | 4 | -0.0517 | 57.5
